The source holds more than one record for some entries. This list holds those alone. There may be further records. Values that stand side by side do not match, cause unknown; they may come from other doses, times, organisms or constructs than stated.
Test system: Saccharomyces cerevisiae
Assay: Fungal growth inhibition, S. cerevisiae (library hits, Table A)
Format: cell-based
Conditions: Table A in S1 File, strain not stated

O=C(NC1CCCc2c1[nH]c1ccc(Br)cc21)c1ccccn1 (centres unmarked)
MIC S.cerevisiae (Table A): > 150 µM and nor exhibited antifungal activity

O=C(NC1CCCc2c1[nH]c1ccc(Br)cc21)c1ccccc1F (centres unmarked)
MIC S.cerevisiae (Table A): > 150 µM and nor exhibited antifungal activity

Reference: article PMC5749684, “Tetrahydrocarbazoles are a novel class of potent P-type ATPase inhibitors with antifungal activity” (PLoS ONE, 2018)
